According to PMC9791040, “CtrA activates the expression of glutathione S-transferase conferring oxidative stress resistance to Ehrlichia chaffeensis” (Frontiers in Cellular and Infection Microbiology, 2022):
Tags and fusion partners may be left off the protein sequences shown.

System: T1, GST-rCtrA (Ehrlichia chaffeensis)
T1 sequence (looked up): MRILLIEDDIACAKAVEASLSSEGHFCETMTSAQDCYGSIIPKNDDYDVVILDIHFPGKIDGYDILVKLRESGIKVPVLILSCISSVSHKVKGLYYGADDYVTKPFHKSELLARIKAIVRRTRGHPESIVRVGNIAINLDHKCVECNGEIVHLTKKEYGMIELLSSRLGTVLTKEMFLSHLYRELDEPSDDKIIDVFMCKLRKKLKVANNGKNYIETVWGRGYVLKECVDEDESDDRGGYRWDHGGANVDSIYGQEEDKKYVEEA
Assay: EMSA
Conditions: 2.5 uM protein, 50 ng DNA, EMSA: 10 mM Tris-HCl pH 7.5, 1 mM DTT, 20 uL, 50 pmol protein, on ice 30 min, 8% native PAGE in 1x TBE, ethidium bromide stain, recombinant protein, residues 1-265, protein details: N-terminal GST (pET-41a(+)), probe letters rebuilt from the primers and the genome

## GTGCTCGAGTTTCTAGGCTATTACTATTTAACTACCTATTTGAAAAATAAAGCACTTGATCATAGACTGATAGTCTTTACTTGTCTGAACTTTAATCAGGAATGTAATATAAAAACTATAAAGATTCAGAATTACATTGCTAGTAAATATAATAAATAATTACCGTAGTAAATTCTATATACAAAAGAATAGATATATATTAAAAACACAACCATAATTATTAATTTTAATATTAACAGGTTATCTATCTGTAATTCTATAAGATAAGTCTAAAAATATTACATTGCACAAGGTTACCAAGTCTG (double strand) [gst promoter probe, 305 bp]
  binding result: binds
